According to article doi:10.1101/2022.06.06.495010:
Results are given in words; binding and its absence hold for the method and conditions named. In cells and extracts the contact can be indirect. Some binding calls cover weakened binding; strength is not graded here.

The chains behind the UniProt entries cited, without tags or fusion partners. Residues count along the entry.
UniProt P29317, residues 24-976: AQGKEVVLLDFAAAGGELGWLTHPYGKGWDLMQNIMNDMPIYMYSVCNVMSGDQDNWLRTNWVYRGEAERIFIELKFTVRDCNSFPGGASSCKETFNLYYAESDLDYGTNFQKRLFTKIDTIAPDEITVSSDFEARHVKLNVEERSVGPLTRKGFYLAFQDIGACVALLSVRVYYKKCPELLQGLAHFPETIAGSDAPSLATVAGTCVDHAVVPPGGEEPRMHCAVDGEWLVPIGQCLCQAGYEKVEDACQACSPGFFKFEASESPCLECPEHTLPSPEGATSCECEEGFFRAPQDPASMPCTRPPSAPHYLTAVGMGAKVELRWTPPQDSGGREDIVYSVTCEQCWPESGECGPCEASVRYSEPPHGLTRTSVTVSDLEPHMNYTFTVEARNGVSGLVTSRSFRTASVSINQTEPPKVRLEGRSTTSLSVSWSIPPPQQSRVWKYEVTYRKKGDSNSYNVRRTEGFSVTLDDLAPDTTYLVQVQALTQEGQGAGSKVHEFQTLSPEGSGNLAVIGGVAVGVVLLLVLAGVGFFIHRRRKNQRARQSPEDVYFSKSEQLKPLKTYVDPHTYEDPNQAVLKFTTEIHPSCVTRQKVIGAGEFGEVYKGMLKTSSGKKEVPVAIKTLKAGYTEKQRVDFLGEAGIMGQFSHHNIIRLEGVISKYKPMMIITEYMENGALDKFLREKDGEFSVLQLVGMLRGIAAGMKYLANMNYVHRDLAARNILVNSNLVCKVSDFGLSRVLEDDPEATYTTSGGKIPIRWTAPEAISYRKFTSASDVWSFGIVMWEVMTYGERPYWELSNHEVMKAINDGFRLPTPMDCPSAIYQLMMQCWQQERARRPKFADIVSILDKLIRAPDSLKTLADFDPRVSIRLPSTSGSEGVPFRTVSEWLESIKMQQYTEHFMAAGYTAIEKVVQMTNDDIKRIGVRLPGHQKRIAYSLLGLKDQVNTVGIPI

Biological target: EphA2 wild-type, full-length, labeled at the C-terminus with mTurquoise or eYFP (human) (UniProt P29317)
Experiment: FRET or BRET

binding: binds
Substance: EphA2 wild-type, full-length, labeled at the C-terminus with mTurquoise or eYFP (from UniProt P29317 24-976) (receptor)
